{"sequences": {"note": "By UniProt entry, the sequences of proteins in these tests, tags left out. Where a name states a change or a piece, a line headed by the entry shows the natural chain unless it says otherwise.", "UniProt P15692": "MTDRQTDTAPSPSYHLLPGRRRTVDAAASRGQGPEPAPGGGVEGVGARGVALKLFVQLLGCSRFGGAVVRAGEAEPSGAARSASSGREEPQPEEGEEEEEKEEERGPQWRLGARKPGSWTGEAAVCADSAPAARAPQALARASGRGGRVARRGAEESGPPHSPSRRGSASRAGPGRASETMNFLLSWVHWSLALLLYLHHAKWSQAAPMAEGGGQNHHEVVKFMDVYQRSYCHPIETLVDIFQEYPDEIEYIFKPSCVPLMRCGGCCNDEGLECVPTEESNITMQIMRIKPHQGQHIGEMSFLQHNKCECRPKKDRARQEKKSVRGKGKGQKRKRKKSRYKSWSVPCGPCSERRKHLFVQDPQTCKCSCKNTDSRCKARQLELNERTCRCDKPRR"}, "source": "paper PMC6823460", "binders": {"B1": {"name": "calpain-6, endogenous in human placental tissue (protein, UniProt Q9Y6Q1 1-641)", "chain": "MGPPLKLFKNQKYQELKQECIKDSRLFCDPTFLPENDSLFYNRLLPGKVVWKRPQDICDDPHLIVGNISNHQLTQGRLGHKPMVSAFSCLAVQESHWTKTIPNHKEQEWDPQKTEKYAGIFHFRFWHFGEWTEVVIDDLLPTINGDLVFSFSTSMNEFWNALLEKAYAKLLGCYEALDGLTITDIIVDFTGTLAETVDMQKGRYTELVEEKYKLFGELYKTFTKGGLICCSIESPNQEEQEVETDWGLLKGHTYTMTDIRKIRLGERLVEVFSAEKVYMVRLRNPLGRQEWSGPWSEISEEWQQLTASDRKNLGLVMSDDGEFWMSLEDFCRNFHKLNVCRNVNNPIFGRKELESVLGCWTVDDDPLMNRSGGCYNNRDTFLQNPQYIFTVPEDGHKVIMSLQQKDLRTYRRMGRPDNYIIGFELFKVEMNRKFRLHHLYIQERAGTSTYIDTRTVFLSKYLKKGNYVLVPTMFQHGRTSEFLLRIFSEVPVQLRELTLDMPKMSCWNLARGYPKVVTQITVHSAEDLEKKYANETVNPYLVIKCGKEEVRSPVQKNTVHAIFDTQAIFYRRTTDIPIIVQVWNSRKFCDQFLGQVTLDADPSDCRDLKSLYLRKKGGPTAKVKQGHISFKVISSDDLTEL"}}, "target": "VEGFA, endogenous in human placental tissue (human (endogenous in placental tissue)) (UniProt P15692)", "experiment": "co-IP; human placental tissue lysate (1 mg protein); anti-VEGFA antibody overnight at 4 °C, protein A/G agarose; immunoblot with anti-calpain-6", "note": "These are yes or no findings as the source states them, for the method shown. In cells and extracts the contact can be indirect. Binding can be weak; no strength is given.", "data": [{"binder": "B1", "values": [{"measurement": "binding", "result": "binds"}]}]}
